Data: the supplement of paper PMC10331698
± gives the standard deviation of the averaged measurements. Most entries show no effect beyond the scatter of the controls.

Experiments:
Experiment in all cases: level (log10 ratio to DMSO vehicle control); higher = higher biomarker level / cell amount than vehicle control
[1] = compound: O=C(O)C(F)(F)C(F)(F)C(F)(F)C(F)(F)C(F)(F)C(F)(F)C(F)(F)C(F)(F)C(F)(F)C(F)F [11-H-Perfluoroundecanoic acid]; settings: 2200 nM; in DMSO
Procedure: (§1)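 BioMAP Diversity Plus panel of 12 human primary cell co-culture systems (3C, 4H, LPS, SAg, BT, BF4T, BE3C, CASM3C, HDF3CGF, KF3CT, MyoF, Mphg). Compounds were added 1 h before stimulation and left for 24 h (MyoF 48 h; BT 72 h for soluble read-outs or 6 d for IgG). Biomarkers were read by ELISA, cytotoxicity by SRB, PBMC viability and proliferation by Alamar Blue. Each well value was divided by the mean of 8 DMSO control wells on the same plate and log10 transformed; duplicate blinded samples were tested at 4 concentrations.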

[2] = compound: CCN(CCO)S(=O)(=O)C(F)(F)C(F)(F)C(F)(F)C(F)(F)C(F)(F)C(F)(F)C(F)(F)C(F)(F)F [N-Ethyl-N-(2-hydroxyethyl)perfluorooctanesulfonamide]; settings: in DMSO
Procedure: as §1

[3] = compound: O=C(O)C(F)(F)C(F)(F)C(F)(F)C(F)(F)F [Perfluoropentanoic acid]; settings: in DMSO
Procedure: as §1

[4] = compound: Cc1ccc(S(=O)(=O)OCC(F)(F)C(F)(F)C(F)(F)C(F)(F)C(F)(F)C(F)F)cc1 [1H,1H,7H-Perfluoroheptyl 4-methylbenzenesulfonate]; settings: 2200 nM; in DMSO
Procedure: as §1

[5] = compound: O=C(O)C(F)(F)C(F)(F)C(F)(F)OC(F)(F)F [Perfluoro(4-methoxybutanoic) acid]; settings: 2200 nM; in DMSO
Procedure: as §1

[6] = compound: OCC(F)(F)C(F)(F)C(F)(F)F [1H,1H-Heptafluorobutanol]; settings: 2200 nM; in DMSO
Procedure: as §1

[7] = compound: CCCCCCCCC(F)(F)C(F)(F)C(F)(F)C(F)(F)C(F)(F)C(F)(F)F [1-(Perfluorohexyl)octane]; settings: in DMSO
Procedure: as §1

[8] = compound: OCCC(F)(F)C(F)(F)C(F)(F)C(F)(F)C(F)(F)C(F)(F)F [6:2 Fluorotelomer alcohol]; settings: 2200 nM; in DMSO
Procedure: as §1

[9] = compound: O=C(O)C(F)(F)C(F)(F)C(F)(F)C(F)(F)C(=O)O [Octafluoroadipic acid]; settings: 2200 nM; in DMSO
Procedure: as §1

[10] = compound: CN(C(=O)C(F)(F)C(F)(F)C(F)(F)F)[Si](C)(C)C [N-Methyl-N-trimethylsilylheptafluorobutyramide]; settings: 2200 nM; in DMSO
Procedure: as §1

[11] = compound: NC(=O)C(F)(F)C(F)(F)C(F)(F)F [Heptafluorobutyramide]; settings: 2200 nM; in DMSO
Procedure: as §1

[12] = compound: O=S(=O)(O)CCC(F)(F)C(F)(F)C(F)(F)C(F)(F)C(F)(F)C(F)(F)C(F)(F)C(F)(F)F [8:2 Fluorotelomer sulfonic acid]; settings: in DMSO
Procedure: as §1

[13] = compound: NCC(F)(F)C(F)(F)C(F)(F)C(F)(F)C(F)(F)C(F)(F)C(F)(F)F [1H,1H-Perfluorooctylamine]; settings: 2200 nM; in DMSO
Procedure: as §1

[14] = compound: FC(F)(F)C(F)(F)C(F)(F)C(F)(F)C(F)(F)C(F)(F)CC1CO1 [3-(Perfluorohexyl)-1,2-epoxypropane]; settings: 2200 nM; in DMSO
Procedure: as §1

[15] = compound: O=C(O)C(F)(F)C(F)(F)C(F)(F)C(F)(F)C(F)(F)C(F)(F)F [Perfluoroheptanoic acid]; settings: in DMSO
Procedure: as §1

[16] = compound: CC(C)(C)C(=O)CC(=O)C(F)(F)C(F)(F)C(F)(F)F [(Heptafluorobutanoyl)pivaloylmethane]; settings: 2200 nM; in DMSO
Procedure: as §1

Row | Test System | level (log10) [1] | level (log10) ([2]; 2200 nM) | level (log10) ([2]; 6700 nM) | level (log10) ([2]; 20000 nM) | level (log10) ([3]; 2200 nM) | level (log10) ([3]; 6700 nM) | level (log10) ([3]; 20000 nM) | level (log10) ([3]; 60000 nM) | level (log10) [4] | level (log10) [5] | level (log10) [6] | level (log10) ([7]; 740 nM) | level (log10) ([7]; 2200 nM) | level (log10) [8] | level (log10) [9] | level (log10) [10] | level (log10) [11] | level (log10) ([12]; 2200 nM) | level (log10) ([12]; 6700 nM) | level (log10) ([12]; 20000 nM) | level (log10) ([12]; 60000 nM) | level (log10) [13] | level (log10) [14] | level (log10) ([15]; 2200 nM) | level (log10) ([15]; 6700 nM) | level (log10) ([15]; 20000 nM) | level (log10) ([15]; 60000 nM) | level (log10) [16]
1 | BE3C:tPA | 0.102 ± 0.054 | 0.12 ± 0.021 | 0.142 ± 0.0099 | -0.036 ± 0.058 | -0.001 ± 0.037 | -0.059 ± 0.011 | -0.043 ± 0.017 | -0.013 ± 0.064 | 0.0135 ± 0.059 | -0.0035 ± 0.018 | 0.008 ± 0.0085 | 0.041 ± 0.041 | 0.0145 ± 0.046 | 0.0115 ± 0.028 | 0.0105 ± 0.0078 | 0.004 ± 0.014 | -0.0105 ± 0.0064 | 0.0415 ± 0.00071 | 0.0755 ± 0.021 | 0.0535 ± 0.0064 | -0.021 ± 0.0099 | -0.0025 ± 0.0092 | 0.0145 ± 0.046 | 0.0225 ± 0.06 | -0.0205 ± 0.026 | -0.0255 ± 0.0078 | 0.017 ± 0.031 | -0.0155 ± 0.035
2 | BT:Secreted IgG | 0.0045 ± 0.037 | 0.023 ± 0.0085 | -0.002 ± 0.016 | -1.16 ± 0.3 | -0.0075 ± 0.0092 | -0.0065 ± 0.016 | 0.0145 ± 0.0035 | -0.009 ± 0.059 | -0.0085 ± 0.005 | 0.027 ± 0.052 | 0.0355 ± 0.013 | -0.0075 ± 0.026 | -0.001 ± 0.038 | 0.007 ± 0.057 | 0.0495 ± 0.06 | 0.029 ± 0.0099 | 0.0445 ± 0.018 | -0.0035 ± 0.07 | 0.032 ± 0.0099 | -0.014 ± 0.031 | -0.025 ± 0.014 | 0.033 ± 0.054 | 0.0065 ± 0.0092 | 0.0045 ± 0.0064 | 0.0185 ± 0.0092 | 0.007 ± 0.027 | -0.0365 ± 0.011 | -0.0225 ± 0.025
3 | HDF3CGF:CXCL9/MIG | -0.107 ± 0.13 | -0.013 ± 0.0057 | -0.0065 ± 0.015 | -0.159 ± 0.023 | 0.0045 ± 0.00071 | -0.004 ± 0.0057 | -0.004 ± 0.018 | -0.003 ± 0.02 | -0.0215 ± 0.023 | 0.005 ± 0.0028 | -0.0145 ± 0.029 | -0.0075 ± 0.025 | 0.0045 ± 0.023 | 0.006 ± 0.0057 | -0.0005 ± 0.0064 | -0.003 ± 0.0014 | 0.0025 ± 0.015 | 0.0045 ± 0.016 | -0.048 ± 0.034 | -0.0575 ± 0.04 | 0.061 ± 0.034 | -0.008 ± 0.017 | 0.0075 ± 0.021 | 0.0005 ± 0.019 | -0.009 ± 0.0071 | -0.002 ± 0.021 | 0.0165 ± 0.0064 | -0.028 ± 0.021
4 | SAg:CXCL9/MIG | -0.004 ± 0.011 | -0.0015 ± 0.005 | -0.0135 ± 0.005 | -0.0075 ± 0.013 | 0.0065 ± 0.028 | -0.0115 ± 0.0078 | -0.014 ± 0.0099 | 0.004 ± 0.021 | 0 ± 0.0099 | 0.0095 ± 0.0064 | 0.0105 ± 0.019 | -0.0075 ± 0.023 | -0.0045 ± 0.016 | 0.0065 ± 0.00071 | 0.01 ± 0.0085 | 0.015 ± 0.021 | -0.001 ± 0.0057 | 0.01 ± 0.0057 | 0.0005 ± 0.018 | -0.008 ± 0.0028 | 0.001 ± 0.0057 | 0.0045 ± 0.0078 | 0.0045 ± 0.011 | 0 ± 0.023 | -0.0125 ± 0.0078 | 0.0015 ± 0.0064 | 0.0105 ± 0.011 | 0.001 ± 0.0071
5 | CASM3C:M-CSF | 0.0145 ± 0.026 | 0.006 ± 0.047 | 0.0045 ± 0.00071 | 0.0395 ± 0.0092 | -0.0075 ± 0.013 | -0.0055 ± 0.016 | -0.004 ± 0.017 | 0.0045 ± 0.032 | 0.003 ± 0.044 | 0.0275 ± 0.077 | 0.0345 ± 0.013 | 0.0145 ± 0.046 | -0.0135 ± 0.025 | 0.035 ± 0.072 | -0.024 ± 0.0014 | 0.0055 ± 0.043 | 0.0275 ± 0.077 | 0.0095 ± 0.052 | 0.0005 ± 0.015 | -0.0115 ± 0.0021 | 0.037 ± 0.028 | -0.008 ± 0.054 | 0.0235 ± 0.044 | 0.051 ± 0.044 | -0.004 ± 0.028 | -0.005 ± 0.028 | 0.0035 ± 0.049 | 0.029 ± 0.035
6 | 3C:CD87/uPAR | -0.001 ± 0.013 | -0.0025 ± 0.013 | -0.047 ± 0.027 | -0.124 ± 0.046 | 0.0015 ± 0.013 | -0.003 ± 0.021 | -0.0045 ± 0.021 | -0.0105 ± 0.015 | -0.0125 ± 0.00071 | -0.0225 ± 0.054 | -0.007 ± 0.011 | -0.0115 ± 0.0078 | 0.0085 ± 0.028 | -0.0305 ± 0.05 | -0.01 ± 0.016 | -0.0135 ± 0.00071 | -0.0265 ± 0.043 | 0.01 ± 0.023 | 0.0195 ± 0.016 | -0.001 ± 0.058 | -0.003 ± 0.03 | -0.0105 ± 0.023 | 0.0285 ± 0.022 | 0.033 ± 0.023 | 0.0015 ± 0.0021 | -0.0115 ± 0.026 | 0.0045 ± 0.013 | -0.006 ± 0.027
7 | HDF3CGF:Collagen I | -0.0205 ± 0.066 | 0.0355 ± 0.13 | 0.0835 ± 0.03 | 0.112 ± 0.0092 | -0.025 ± 0.042 | -0.0295 ± 0.012 | -0.01 ± 0.0014 | 0.003 ± 0.064 | 0.0415 ± 0.0078 | 0.05 ± 0.069 | 0.0085 ± 0.03 | -0.0135 ± 0.077 | -0.0585 ± 0.0092 | 0.031 ± 0.041 | 0.035 ± 0.075 | 0.0025 ± 0.056 | 0.0415 ± 0.022 | 0.021 ± 0.037 | 0.007 ± 0.038 | 0.0195 ± 0.049 | -0.0455 ± 0.17 | 0.0085 ± 0.12 | 0.017 ± 0.075 | 0.0155 ± 0.087 | -0.036 ± 0.045 | -0.009 ± 0.024 | 0.0395 ± 0.061 | 0.0115 ± 0.03
8 | KF3CT:uPA | 0.0045 ± 0.016 | 0.018 ± 0.0085 | 0.022 ± 0.0028 | -0.0225 ± 0.0021 | 0.0085 ± 0.018 | 0.0015 ± 0.023 | 0 ± 0.0085 | 0.021 ± 0.0071 | -0.0085 ± 0.012 | 0.0145 ± 0.015 | -0.0015 ± 0.0064 | 0.009 ± 0.014 | 0.0175 ± 0.019 | -0.006 ± 0.0085 | 0.0145 ± 0.025 | 0.002 ± 0.0071 | 0.011 ± 0.0085 | 0.002 ± 0.011 | 0.007 ± 0.0042 | 0.006 ± 0.024 | 0.012 ± 0.016 | -0.014 ± 0.018 | 0.011 ± 0.017 | 0.0055 ± 0.0035 | 0.007 ± 0.016 | 0.0065 ± 0.0021 | 0.0075 ± 0.013 | -0.008 ± 0.027
9 | KF3CT:CXCL8/IL-8 | 0.002 ± 0.0099 | 0.01 ± 0.0085 | -0.0975 ± 0.012 | -0.0935 ± 0.0064 | -0.0155 ± 0.0092 | -0.0025 ± 0.019 | -0.0035 ± 0.005 | 0.016 ± 0.0071 | 0.0105 ± 0.023 | 0.0065 ± 0.005 | -0.001 ± 0.016 | 0.013 ± 0.024 | 0.012 ± 0.0028 | -0.0115 ± 0.011 | 0.0075 ± 0.0021 | 0.006 ± 0.0042 | 0.004 ± 0.016 | 0.0135 ± 0.043 | 0.016 ± 0.038 | -0.03 ± 0.023 | -0.131 ± 0.036 | 0.0035 ± 0.0092 | 0.016 ± 0.013 | -0.004 ± 0.023 | -0.0055 ± 0.0064 | 0.002 | 0.0105 ± 0.00071 | -0.0045 ± 0.015
